Measurements: article PMC11975286, “Functional dissection of the conserved C. elegans LEM-3/ANKLE1 nuclease reveals a crucial requirement for the LEM-like and GIY-YIG domains for DNA bridge processing”

Target: T1, LEM-3(241-704) (Caenorhabditis elegans) (UniProt G5EGA3)
T1 sequence (looked up): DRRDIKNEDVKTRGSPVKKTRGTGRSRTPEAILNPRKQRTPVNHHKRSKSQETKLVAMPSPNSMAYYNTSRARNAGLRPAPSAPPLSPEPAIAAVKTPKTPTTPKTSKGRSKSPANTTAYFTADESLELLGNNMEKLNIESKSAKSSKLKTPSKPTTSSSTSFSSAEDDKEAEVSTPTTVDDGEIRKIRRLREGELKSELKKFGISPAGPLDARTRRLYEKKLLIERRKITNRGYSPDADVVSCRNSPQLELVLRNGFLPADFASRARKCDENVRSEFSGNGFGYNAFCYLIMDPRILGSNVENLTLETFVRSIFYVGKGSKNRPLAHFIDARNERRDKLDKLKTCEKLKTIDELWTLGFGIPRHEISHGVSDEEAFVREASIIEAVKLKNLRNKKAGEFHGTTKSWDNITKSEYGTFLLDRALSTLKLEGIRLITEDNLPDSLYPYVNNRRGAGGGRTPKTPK
Experiment: competition with a labelled probe
Conditions: unlabelled HJ gradually reduces shift of HJ-X0-1, 10 mM Tris-HCl pH 7.5, 100 mM NaCl, 5% glycerol, 5 ng/ul poly(dI-dC), 4 C, 1 h, 8.3 nM HJ-X0-1 (0.13 nM for Kd), 6% native PAGE, 0.5x TBE, recombinant protein, residues 241-704, folded or branched DNA

ACGCTGCCGAATTCTACCAGTGCCTTGCTAGGACATCTTTGCCCACCTGCAGGTTCACCC / GGGTGAACCTGCAGGTGGGCAAAGATGTCCATCTGTTGTAATCGTCAAGCTTTATGCCGT / ACGGCATAAAGCTTGACGATTACAACAGATCATGGAGCTGTCTAGAGGATCCGACTATCG / CGATAGTCGGATCCTCTAGACAGCTCCATGTAGCAAGGCACTGGTAGAATTCGGCAGCGT [unlabelled HJ competitor]
binding result: binds

For at least one entry, the source does not settle the construct or the ends of the probe. Tags and fusion partners may be left off the protein sequences shown.
